# Data as given in PubChem BioAssay AID1259254 (NCATS, 2017).
# Aim: 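Finding genes that stop cells copying their DNA twice in one cycle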 (primary screen)
# System: human HCT116 colorectal cancer cells
# Reagents: single siRNA against human genes
# Timing: 3 days
# Measured: 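Imaged Hoechst DNA stain sorts each cell into a cycle phase by DNA amount; per plate, G2 fraction set to 0% for non-targeting and 100% for GMNN siRNA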
# Direction: G2 robust z-score and G2 cells, % of GMNN control: higher = more G2 cells, more excess DNA replication; raw share of cells in G2: higher = larger share of cells with G2 DNA content
# Call rule: 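An siRNA counts as active if its G2 robust z-score lies at least 5 MADs above the screen median; here such calls match roughly 38% of GMNN control or more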
# The deposit covers about 59,000 reagents; this is a random part of them. Over the whole deposit, about 1,550 (2.6%) were called active. 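G2 share is only a proxy for re-replication; each gene was hit by three separate siRNAs, and active genes were retested.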 The raw values are shown without normalisation. Unmarked entries are inactive. Reagents against one gene are numbered here. Not given: the amount of reagent.
Gene,siRNA no.,G2 robust z-score,"G2 cells, % of GMNN control",raw share of cells in G2 (%)
ANPEP,1,0.252,4.74,7.21
ANPEP,2,-0.674,-1.77,4.28
ANPEP,3,-0.205,1.52,4.48
SPATA41,1,4.96,37.8,16.7
SPATA41,2,1.04,10.3,7.89
SPATA41,3,0.39,5.71,7.08
TNFSF15,1,0.0909,3.61,6.96
TNFSF15,2,1.4,12.8,9.3
TNFSF15,3,0.538,6.75,5.86
PRL,1,-0.18,1.7,5.56
PRL,2,-1.16,-5.19,2.7
PRL,3,0.129,3.88,5.43
ADAM8,1,-1.36,-6.58,3.27
ADAM8,2,-1.42,-7.02,2.42
ADAM8,3,0.608,7.24,6.61
KLHL12,1,-0.000691,2.96,6.87
KLHL12,2,-0.438,-0.115,4.31
KLHL12,3,0.752,8.26,7.23

Laid out differently: entries from further up
{"Gene":"ADAM8","siRNA no.":3,"G2 robust z-score":0.608,"G2 cells, % of GMNN control":7.24,"raw share of cells in G2 (%)":6.61}
{"Gene":"KLHL12","siRNA no.":1,"G2 robust z-score":-0.000691,"G2 cells, % of GMNN control":2.96,"raw share of cells in G2 (%)":6.87}

The listing continues:
Gene,siRNA no.,G2 robust z-score,"G2 cells, % of GMNN control",raw share of cells in G2 (%)
ECHS1,1,0.573,7,7.78
ECHS1,2,0.00716,3.02,6.41
ECHS1,3,-0.365,0.402,3.8
KAT6A,1,1.6,14.2,11.6
KAT6A,2,1.64,14.5,9.26
KAT6A,3,-0.696,-1.93,3.54
DISP2,1,0.207,4.42,5.96
DISP2,2,1.62,14.3,7.5
DISP2,3,0.115,3.77,4.12
SRA1,1,1.18,11.3,9.33
SRA1,2,-0.479,-0.4,5.05
SRA1,3,0.545,6.8,5.52
ACOT9,1,0.696,7.86,6.56
ACOT9,2,-1.26,-5.89,4.01
ACOT9,3,-0.621,-1.4,3.69
TRIM46,1,4.02,31.3,18.5
TRIM46,2,0.455,6.17,6.43
TRIM46,3,7.53 (active),56,25.5
PIMREG,1,-1.01,-4.11,2.13
PIMREG,2,-0.0937,2.31,5.24
PIMREG,3,-1.11,-4.85,1.59
GABBR2,1,2.11,17.8,12.2
GABBR2,2,-0.715,-2.07,3.79
GABBR2,3,-0.55,-0.899,2.99
SUN5,1,4.63,35.6,17.6
SUN5,2,-0.713,-2.05,2.45
SUN5,3,0.517,6.6,4.97
ARHGEF35,1,-0.367,0.384,3.25
ARHGEF35,2,-0.454,-0.229,3.53
ARHGEF35,3,-0.412,0.072,3.44
